No constants are given. Whether binding was seen depends on the method and setting. Some results given as binding are weak or reduced against the parent protein; the word gives no strength.
How the values were obtained:
[1] = target: human CALR del61 frameshift mutant calreticulin (61 base pair deletion in CALR exon 9) (human) (UniProt P27797); test: hybridoma screen (Western blot, FIG. 6A)
[2] = target: human CALR del61 frameshift mutant calreticulin (61 base pair deletion in CALR exon 9) (human) (UniProt P27797); test: Western blot of TF-1 cell extracts (hybridoma clone screen)
[3] = target: human CALR del61 frameshift mutant calreticulin (61 base pair deletion in CALR exon 9) (human) (UniProt P27797); test: flow cytometry on TF-1 TpoR CALR^del61 cells
[4] = target: human CALR del61 frameshift mutant calreticulin (61 base pair deletion in CALR exon 9) (human) (UniProt P27797); test: Western blot of cell extracts
[5] = target: human CALR del61 frameshift mutant calreticulin (61 base pair deletion in CALR exon 9) (human) (UniProt P27797); test: flow cytometry, PE-conjugated 4D7 at 4 µg/mL on TF-1 TpoR CALRdel61 cells
[6] = target: human CALR del61 frameshift mutant calreticulin (61 base pair deletion in CALR exon 9) (human) (UniProt P27797); test: flow cytometry, PE-conjugated 4D7 on TF-1 TpoR CALRdel61 cells

binding [1]: binds
binding [2]: binds
binding [3]: binds
binding [4]: binds
binding [5]: binds
binding [6]: binds
B1: 4D7 rat monoclonal IgG2a anti-mutant calreticulin antibody (antibody, V domains shown)
VH: QVQLQQSGAELAKPGSSVKISCKASGYTFTNYDMSWIKQRPGQALEWIGAINPGNGVTDYNEKFRGKATLTVDKSSSTAFMQLSSLTPEDTAVYHCAREYRDNYGYFDYWGQGVMVTVSS
VL: DIVLTQTPVSLSVTLGDQASISCRSSQSLEYSDGYTYLDWFLQKPGQSPQLLIYEVSSRFSGVPDRFIGRGSGTDFTLKISRVEPEDLGVYYCFQATHDPFTFGSGTKLEIK
notes: also called clone 4D7; clone 4D7 mAb

From US20250236667A1, “ANTIBODIES TO MUTANT CALRETICULIN AND USES THEREOF” (CENTRAL ADELAIDE LOCAL HEALTH NETWORK INC, priority 2021, published 2025)
